Experimental data as given in PubChem BioAssay AID445 (National Center for Advancing Translational Sciences (NCATS), 2006).
This is one part of the list. The main result of the screen is listed elsewhere. These columns were measured beside it and carry no call. Compounds called inactive in the main read-out are mostly missing here. Potencies come from curve fits of mixed quality, noted in brackets.

Assay: IkB Signaling
Conditions: ABC-DLBCL IkBa-CBG/CBR dual luciferase ratio (green luciferase fused to IkBa over red control in OCI-Ly3 lymphoma cells), 4 h; measured here: control luc red channel unless noted
Procedure, shortened: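 In this assay, an IκBα–CBG68 fusion accumulates when IKK-driven degradation is blocked; native CBR normalizes for cell number. OCI-Ly3 cells were treated 4 h with compound and doxycycline, then green and red light read after Chroma-Glo addition.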

SMILES | AC50
CN(C)CCCN1c2ccccc2CCc2ccc(Cl)cc21 | 39.8 µM [falling, single point]
c1ccc2cc3[nH]c(CN4CCCCC4)nc3cc2c1 | 15.8 µM [falling, partial curve]
Cc1ccc(C(=O)Nc2ccc(-c3nc4ccccc4s3)cc2C)cc1C | 12.6 µM [rising, partial curve]
C=CCn1c(SCc2cc(=O)n3ccsc3n2)nc2scc(C3CC3)c2c1=O | 12.6 µM [falling, partial curve]
CCOc1cc(CNC(=O)NC2COc3ccc(OC)cc3C2)cc(OCC)c1OCC (configuration not stated) | 2.51 µM [falling, partial curve]
COC(=O)c1ccccc1NC(=O)Nc1nnc(N2CCC(C)CC2)s1 | 15.8 µM [falling, single point]
Cc1csc2nc(COc3ccccc3NC(=O)c3ccc(C(C)(C)C)cc3)cc(=O)n12 | 12.6 µM [falling, partial curve]
CC(=O)C1=C(c2ccc(C)c(C)c2)N(C(C)=O)n2c(nnc2-c2ccc(Cl)cc2)S1 | 6.31 µM [falling, full curve]
O=C(Cn1c(=O)n(-c2ccccc2Cl)c(=O)c2sc3ccccc3c21)NC1CCCCC1 | 20 µM [falling, single point]
N#Cc1cccc(NC(=O)C2CCN(S(=O)(=O)c3ccc4[nH]c(=O)ccc4c3)CC2)c1 | 20 µM [rising, single point]
Cc1ccccc1-n1nc(CO)c(C(=O)NCc2cccs2)n1 | 3.16 µM [rising, partial curve]
CCn1c(SCC(=O)Nc2oc(-c3ccccc3)c(-c3ccccc3)c2C#N)nnc1-c1ccco1 | 3.16 µM [falling, full curve, poor fit]
Cc1ccccc1OC(=O)CSc1nnc(-c2ccc(F)cc2)o1 | 39.8 µM [falling, single point]
Cc1ccc(-c2cc(C(=O)Oc3ccccc3)c3cc(C)ccc3n2)cc1 | 12.6 µM [falling, partial curve]
Fc1ccc(CSc2nnc(-c3cnccn3)n2Cc2ccco2)cc1 | 12.6 µM [falling, partial curve]
Cc1ccc(Cn2nnc3c(=O)[nH]c(C4CCN(S(=O)(=O)c5cc(C)ccc5C)CC4)nc32)cc1 | 15.8 µM [falling, partial curve]
COc1ccc2nc(NC(=O)c3nc(S(=O)(=O)Cc4cccc(C)c4)ncc3Cl)sc2c1 | 7.94 µM [falling, full curve]
O=C1[C@@H]2C(Cc3ccc(O)cc3)NC3(C(=O)Nc4ccc(F)cc43)[C@@H]2C(=O)N1c1ccc(F)cc1 (some centres not stated) | 6.31 µM [falling, partial curve]
CCOC(=O)Cn1nc(C)c(NC(=O)COc2ccc(Cl)cc2C)c1C | 12.6 µM [falling, partial curve]
Cc1cccc2nc(-c3cccc(NS(=O)(=O)c4ccccc4)c3)cn12 | 25.1 µM [falling, single point]
Cc1ccc(C)c(CSc2nc3ccncc3n2CC(=O)Nc2ccc(N(C)C)cc2)c1 | 7.94 µM [falling, partial curve]

SMILES | AC50
COC(=O)C1=C(CN2CCc3ccccc32)NC(=O)NC1c1cc(C)ccc1C (configuration not stated) | 25.1 µM [falling, single point]
Cc1ccc(C)c(Cn2c3ccccc3c3cnn(CC(=O)NCc4ccccc4)c(=O)c32)c1 | 39.8 µM [falling, single point]
Cc1ccc(NC(=O)CSc2nc(-c3ccco3)nc3cc(=O)[nH]n23)cc1C | 15.8 µM [falling, partial curve]
Fc1ccccc1Cn1c(-c2ccccc2)nc2ccccc21 | 15.8 µM [falling, partial curve]
Cc1ccnc(N2CCN(C(=O)CSc3nc4ccccc4nc3N3CCCCC3)CC2)c1 | 3.98 µM [falling, partial curve]
COc1cccc(N2CC(NC(=O)c3cccc(OC)c3OC)CC2=O)c1 (configuration not stated) | 20 µM [rising, partial curve]
Cc1ccccc1OCc1nnc(SCc2cc(=O)c3cccc(F)c3[nH]2)n1C | 12.6 µM [falling, partial curve, poor fit]
CCn1cc(SCC(=O)NCc2ccc3c(c2)OCO3)c2ccccc21 | 3.16 µM [falling, full curve]
Cc1ccc(-n2nnc(C(=O)Nc3cc(F)ccc3F)c2C)cc1F | 10 µM [rising, partial curve]
O=C(c1ccccc1)N1c2ncnn2C2(CCCCC2)[C@@H]2CCCC[C@@H]21 | 12.6 µM [falling, partial curve]
COc1ccccc1NC(=O)c1sc2nc3c(cc2c1N)CCCCCC3 | 15.8 µM [falling, partial curve]
Cc1ccc2c(c1)C(c1ccc(F)cc1)N(C(=O)c1ccc(OC(C)C)cc1)CC(=O)N2 (configuration not stated) | 25.1 µM [falling, partial curve]
Cn1c(=O)[nH]c(=O)c2c1nc(N1CCNCC1)n2Cc1cccc2ccccc12 | 25.1 µM [rising, partial curve] [measured here: IkB-luc green channel]
Cc1c(NC(=O)c2ccco2)cccc1-c1nc2cccnc2s1 | 15.8 µM [falling, partial curve]
COc1cc2[nH]c(=O)n(CCCC(=O)N3CCN(c4cccc(C(F)(F)F)c4)CC3)c(=O)c2cc1OC | 15.8 µM [falling, partial curve]
COc1ccccc1N1CCN(C(=O)CN2C(=O)COc3ccc(S(=O)(=O)N4CCC(C)CC4)cc32)CC1 | 15.8 µM [falling, partial curve]
COc1ccc(OCc2nnc(SCC(N)=O)n2-c2ccccc2OC)cc1 | 12.6 µM [falling, partial curve]
COc1ccc(C(=O)CSc2c(C(C)C)cnc3c2c(=O)n(C)c(=O)n3C)cc1 | 39.8 µM [falling, single point]
CCOc1ccc(NC(=O)CSc2nc3c(oc4ccccc43)c(=O)n2CCOC)cc1 | 7.94 µM [rising, partial curve]
Cn1ncc2nc(SCC(=O)Nc3ccc(Br)cc3F)n(Cc3ccccc3)c(=O)c21 | 0.02 µM [falling, full curve, poor fit]
Cc1ccc(NC(=O)C(Cc2c[nH]c3ccccc23)NC(=O)OCC(C)C)cc1 (configuration not stated) | 25.1 µM [falling, single point]

2 entries from above, field by field:
CCn1cc(SCC(=O)NCc2ccc3c(c2)OCO3)c2ccccc21
  AC50: 3.16 µM [falling, full curve]
Cc1ccc(-n2nnc(C(=O)Nc3cc(F)ccc3F)c2C)cc1F
  AC50: 10 µM [rising, partial curve]

(further entries)

SMILES | AC50
CC(C)(C)C(=O)NCCc1csc2nc(-c3ccc(F)cc3)nn12 | 0.0794 µM [falling, partial curve, poor fit]
CCC(c1nnnn1Cc1ccco1)N(CCc1ccccc1)Cc1cc2cc(C)ccc2[nH]c1=O (configuration not stated) | 25.1 µM [falling, single point]
COc1ccc2oc(-c3ccc(C)c(NC(=O)COc4cc(C)cc(C)c4)c3)nc2c1 | 3.98 µM [falling, full curve]
CCCOC(=O)c1ccc(Oc2cn[nH]c2-c2ccc(OCC)cc2O)cc1 | 15.8 µM [falling, partial curve]
NC(=NCc1ccc(Cl)c(Cl)c1)NC(=O)c1nc(Cl)c(N)nc1N | 31.6 µM [falling, partial curve, poor fit] [measured here: IkB-luc green channel]
O=C(CN1CCCN(Cc2ccccc2Cl)S1(=O)=O)NCc1ccccc1 | 12.6 µM [falling, partial curve]
Cc1cccn2c(=O)cc(COc3cccc(NC(=O)COc4ccc(F)cc4)c3)nc12 | 2 µM [falling, full curve]
COc1cc(-c2noc(CCC(=O)Nc3cc(C)ccc3C)n2)cc(OC)c1OC | 31.6 µM [falling, partial curve]
COc1ccc(NC(=O)CCS(=O)(=O)c2ccc3nc(C)sc3c2)cc1Cl | 20 µM [falling, single point]
Cc1ccc(-n2ncc(C(=O)NCCc3c[nH]c4ccccc34)c2C2CCN(C(=O)OC(C)(C)C)CC2)cc1C | 10 µM [falling, partial curve]
Cc1ccc(OC(=O)CSc2nnc(-c3cccs3)o2)cc1 | 39.8 µM [falling, single point]
CNC(=O)c1c(NC(=O)/C=C/c2ccccc2Cl)sc2c1CCC2 | 0.0631 µM [falling, full curve]
Cc1ccccc1C(=O)N(Cc1nc(-c2ccc(Cl)cc2)no1)C(C)C | 25.1 µM [falling, single point]
CC(NC(=O)CN(c1ccc(Cl)cc1Cl)S(=O)(=O)c1ccccc1)c1ccccc1 (configuration not stated) | 15.8 µM [falling, partial curve]
CCN(CC)C(=O)CSC(=Nc1ccccc1F)NC#N | 0.794 µM [falling, partial curve]
CC1CCCC(NC(=O)c2n[nH]c(=O)c3ccccc23)C1C (configuration not stated) | 0.158 µM [falling, full curve]
CCCN(CCC)CCCNC(=O)Cn1ncc2c3ccccc3n(Cc3ccccc3)c2c1=O | 15.8 µM [falling, partial curve]
Cc1nc(-c2ccc(Cl)cc2)sc1CCNC(=O)c1cccs1 | 39.8 µM [falling, single point]
CCCOc1ccc(-c2nc(SC)[nH]c(=O)c2C#N)cc1OC | 10 µM [falling, partial curve, poor fit]
O=C(c1ccc2c(c1)N(Cc1ccccc1)C(=O)c1ccccc1S2(=O)=O)N1CCCCCC1 | 15.8 µM [falling, partial curve]
